According to article PMC10885370:
No constants are given. Whether binding was seen depends on the method and setting. Binding seen in cells or lysates may run through a third protein. Here binding means that the protein was enriched with, or labelled near, the bait; the list need not be complete.

By UniProt entry, the sequences of proteins in these tests, tags left out.
UniProt P54578: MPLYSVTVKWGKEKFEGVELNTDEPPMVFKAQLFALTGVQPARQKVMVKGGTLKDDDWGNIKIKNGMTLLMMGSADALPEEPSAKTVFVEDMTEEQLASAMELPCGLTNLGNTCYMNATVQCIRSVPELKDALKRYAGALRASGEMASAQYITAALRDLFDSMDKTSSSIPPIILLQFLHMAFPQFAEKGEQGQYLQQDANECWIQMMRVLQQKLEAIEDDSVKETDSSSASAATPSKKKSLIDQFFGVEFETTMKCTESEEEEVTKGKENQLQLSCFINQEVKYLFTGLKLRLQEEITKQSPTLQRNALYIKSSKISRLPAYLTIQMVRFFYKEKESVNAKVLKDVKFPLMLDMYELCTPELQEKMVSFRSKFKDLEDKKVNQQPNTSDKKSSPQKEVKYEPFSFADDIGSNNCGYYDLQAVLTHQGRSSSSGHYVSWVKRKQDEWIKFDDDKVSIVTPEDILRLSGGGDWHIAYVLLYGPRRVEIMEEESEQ

Target: HA-tagged ubiquitin-specific protease 14 (USP14), stably overexpressed in HN4 cells (human) (UniProt P54578)
Experiment: affinity purification with mass spectrometry; lysates of HN4 cells stably overexpressing HA-tagged USP14 immunoprecipitated with anti-HA, anti-mouse IgG as negative control; gel electrophoresis, silver staining, in-gel trypsin digestion, LC-MS/MS, MASCOT search

B1: phosphofructokinase-1 liver type (PFKL), endogenous in HN4 cells (enzyme, UniProt P17858 1-780)
chain: MAAVDLEKLRASGAGKAIGVLTSGGDAQGMNAAVRAVTRMGIYVGAKVFLIYEGYEGLVEGGENIKQANWLSVSNIIQLGGTIIGSARCKAFTTREGRRAAAYNLVQHGITNLCVIGGDGSLTGANIFRSEWGSLLEELVAEGKISETTARTYSHLNIAGLVGSIDNDFCGTDMTIGTDSALHRIMEVIDAITTTAQSHQRTFVLEVMGRHCGYLALVSALASGADWLFIPEAPPEDGWENFMCERLGETRSRGSRLNIIIIAEGAIDRNGKPISSSYVKDLVVQRLGFDTRVTVLGHVQRGGTPSAFDRILSSKMGMEAVMALLEATPDTPACVVTLSGNQSVRLPLMECVQMTKEVQKAMDDKRFDEATQLRGGSFENNWNIYKLLAHQKPPKEKSNFSLAILNVGAPAAGMNAAVRSAVRTGISHGHTVYVVHDGFEGLAKGQVQEVGWHDVAGWLGRGGSMLGTKRTLPKGQLESIVENIRIYGIHALLVVGGFEAYEGVLQLVEARGRYEELCIVMCVIPATISNNVPGTDFSLGSDTAVNAAMESCDRIKQSASGTKRRVFIVETMGGYCGYLATVTGIAVGADAAYVFEDPFNIHDLKVNVEHMTEKMKTDIQRGLVLRNEKCHDYYTTEFLYNLYSSEGKGVFDCRTNVLGHLQQGGAPTPFDRNYGTKLGVKAMLWLSEKLREVYRKGRVFANAPDSACVIGLKKKAVAFSPVTELKKDTDFEHRMPREQWWLSLRLMLKMLAQYRISMAAYVSGELEHVTRRTLSMDKGF
  binding: binds
